Positions count from the first letter of the chain named. Results are given in words; binding and its absence hold for the method and conditions named. In cells and extracts the contact can be indirect. Some results given as binding are weak or reduced against the parent protein; the word gives no strength. Sequences can lack the tags named with a protein.

The chains behind the UniProt entries cited, without tags or fusion partners. Residues count along the entry.
UniProt P13569, residues 590-858: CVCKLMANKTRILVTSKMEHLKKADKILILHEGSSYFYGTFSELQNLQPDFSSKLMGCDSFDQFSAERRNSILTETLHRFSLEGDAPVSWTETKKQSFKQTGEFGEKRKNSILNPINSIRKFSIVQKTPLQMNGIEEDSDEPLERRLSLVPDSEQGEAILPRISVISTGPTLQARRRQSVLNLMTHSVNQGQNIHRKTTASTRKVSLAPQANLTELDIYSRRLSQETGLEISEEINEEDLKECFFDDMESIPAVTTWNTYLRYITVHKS

The target of this assay is HA-tagged CFTR R domain (UniProt P13569). The experiment in a line: co-IP; COS7 cells co-transfected with HA-RD and Myc-STAS or Myc-STAS-p.Asp688His; lysates precipitated with anti-HA antibody (3-5 ug/mL) or normal rabbit IgG (control) and protein G-agarose; blot with anti-Myc antibody.

B1: Myc-tagged wild-type SLC26A3 STAS domain (domain or fragment, UniProt P40879 518-713)
chain: NIYKNKKDYYDMYEPEGVKIFRCPSPIYFANIGFFRRKLIDAVGFSPLRILRKRNKALRKIRKLQKQGLLQVTPKGFICTVDTIKDSDEELDNNQIEVLDQPINTTDLPFHIDWNDDLPLNIEVPKISLHSLILDFSAVSFLDVSSVRGLKSILQEFIRIKVDVYIVGTDDDFIEKLNRYEFFDGEVKSSIFFLTI
Turning to B1, the binding entry is given as “binds”.

B2: Myc-tagged SLC26A3 STAS domain with the c.2062 G > C (p.Asp688His) mutation (domain or fragment, UniProt P40879 518-713)
chain: B1 chain with D171H
B2: the binding result is “binds”.

Source of the values: PMC5660164.
